# Experimental data: the supplement of paper PMC8728848
# The other results are listed elsewhere or left out.
# B1: OS9 (Arabidopsis thaliana) (protein)
# chain: MRGSHHHHHHGMASMTGGQQMGRDLYDDDDKSRLQIFPAHLVGTFSRNNREPKYKIEFLPEDSPFHPGDNLESMVMLDKHGNRFLCYLPKEEKATSGWTSSQQNISTVMMETQQLVKLKTPDELLQPLSEKCLFRQEGWWSYEFCHQKYVRQLHVEDENKIVQEFFLGTFDPEATAAFNQTVSDASTDASQRYHSHVYTNGTTCDLTGSPAEVEVRFVCAETRAMVTSITELSTCKYALTVQCPTLCKHPLFQLEKPVSHTIHCNAIPVEEDATRNKEEQAVDESPKMIADS
# Experiments:
# Test in all cases: glycan array binding signal (z-score within array); higher = stronger binding
# Conditions in all cases: glycan notation: IUPAC condensed, linker removed; mutation: R201A
# [1] = target: Gal(b1-3)GlcNAc(b1-3)Gal(b1-4)GlcNAc(b1-2)Man(a1-3)[Gal(b1-3)GlcNAc(b1-3)Gal(b1-4)GlcNAc(b1-2)Man(a1-6)]Man(b1-4)GlcNAc(b1-4)GlcNAc
# Procedure, shortened: (§1)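 Glycan array data came from 3228 arrays in the Consortium for Functional Glycomics database, and only arrays with an available protein sequence were kept. Glycan names were put into IUPAC-condensed notation, and columns mapping to the same glycan were averaged. The binding signal is a within-array Z-score, averaged across arrays of one protein sequence run at different concentrations or buffers and across linkers. A negative Z-score can be read as non-binding.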
# [2] = target: Gal(b1-3)GlcNAc(b1-3)Gal(b1-4)GlcNAc(b1-2)[Gal(b1-3)GlcNAc(b1-3)Gal(b1-4)GlcNAc(b1-6)]Man(a1-6)[Gal(b1-3)GlcNAc(b1-3)Gal(b1-4)GlcNAc(b1-2)Man(a1-3)]Man(b1-4)GlcNAc(b1-4)[Fuc(a1-6)]GlcNAc
# Procedure, shortened: as §1
# [3] = target: Gal(b1-3)GlcNAc(b1-3)Gal(b1-4)GlcNAc(b1-3)Gal(b1-4)GlcNAc(b1-2)[Gal(b1-3)GlcNAc(b1-3)Gal(b1-4)GlcNAc(b1-3)Gal(b1-4)GlcNAc(b1-6)]Man(a1-6)[Gal(b1-3)GlcNAc(b1-3)Gal(b1-4)GlcNAc(b1-3)Gal(b1-4)GlcNAc(b1-2)Man(a1-3)]Man(b1-4)GlcNAc(b1-4)[Fuc(a1-6)]GlcNAc
# Procedure, shortened: as §1
# [4] = target: Gal(b1-3)GlcNAc(b1-3)Gal(b1-4)GlcNAc(b1-6)[Gal(b1-3)GlcNAc(b1-3)]Gal(b1-4)Glc
# Procedure, shortened: as §1
# [5] = target: Gal(b1-3)GlcNAc(b1-3)Gal(b1-4)[Fuc(a1-3)]GlcNAc
# Procedure, shortened: as §1
# [6] = target: Gal(b1-3)GlcNAc(b1-3)Gal(b1-4)[Fuc(a1-3)]GlcNAc(b1-6)[Gal(b1-3)GlcNAc(b1-3)]Gal(b1-4)Glc
# Procedure, shortened: as §1
# [7] = target: Gal(b1-3)GlcNAc(b1-3)GalNAc
# Procedure, shortened: as §1
# [8] = target: Gal(b1-3)GlcNAc(b1-6)Gal(b1-4)GlcNAc
# Procedure, shortened: as §1
# [9] = target: Gal(b1-3)GlcNAc(b1-6)GalNAc
# Procedure, shortened: as §1
# [10] = target: Gal(b1-3)GlcNAc(b1-6)[Gal(b1-3)]GalNAc
# Procedure, shortened: as §1
# Gal(b1-3)GlcNAc6S = target: Gal(b1-3)GlcNAc6S
# Procedure, shortened: as §1
# [11] = target: Gal(b1-3)[Fuc(a1-4)]GlcNAc
# Procedure, shortened: as §1
# [12] = target: Gal(b1-3)[Fuc(a1-4)]GlcNAc(b1-2)Man
# Procedure, shortened: as §1
# [13] = target: Gal(b1-3)[Fuc(a1-4)]GlcNAc(b1-2)Man(a1-3)[Gal(b1-3)[Fuc(a1-4)]GlcNAc(b1-2)Man(a1-6)]Man(b1-4)GlcNAc(b1-4)[Fuc(a1-6)]GlcNAc
# Procedure, shortened: as §1
# [14] = target: Gal(b1-3)[Fuc(a1-4)]GlcNAc(b1-3)Gal(b1-3)[Fuc(a1-4)]GlcNAc
# Procedure, shortened: as §1
# [15] = target: Gal(b1-3)[Fuc(a1-4)]GlcNAc(b1-3)Gal(b1-4)[Fuc(a1-3)]GlcNAc
# Procedure, shortened: as §1
# [16] = target: Gal(b1-3)[Fuc(a1-4)]GlcNAc(b1-6)GalNAc
# Procedure, shortened: as §1
# [17] = target: Gal(b1-3)[GlcNAc(b1-6)]GalNAc
# Procedure, shortened: as §1
# [18] = target: Gal(b1-3)[Neu5Ac(a2-6)]GalNAc
# Procedure, shortened: as §1
# [19] = target: Gal(b1-3)[Neu5Ac(a2-6)]GlcNAc(b1-4)Gal(b1-4)Glc
# Procedure, shortened: as §1
# [20] = target: Gal(b1-3)[Neu5Ac(b2-6)]GalNAc
# Procedure, shortened: as §1
# Gal(b1-4)Gal = target: Gal(b1-4)Gal
# Procedure, shortened: as §1
# [21] = target: Gal(b1-4)GalNAc(a1-3)[Fuc(a1-2)]Gal(b1-4)GlcNAc
# Procedure, shortened: as §1
# [22] = target: Gal(b1-4)GalNAc(b1-3)[Fuc(a1-2)]Gal(b1-4)GlcNAc
# Procedure, shortened: as §1
# Gal(b1-4)Glc = target: Gal(b1-4)Glc
# Procedure, shortened: as §1
# Gal(b1-4)Glc6S = target: Gal(b1-4)Glc6S
# Procedure, shortened: as §1
# Gal(b1-4)GlcNAc = target: Gal(b1-4)GlcNAc
# Procedure, shortened: as §1
# [23] = target: Gal(b1-4)GlcNAc(a1-6)Gal(b1-4)GlcNAc
# Procedure, shortened: as §1
# Gal(b1-4)GlcNAc(b1-2)Man = target: Gal(b1-4)GlcNAc(b1-2)Man
# Procedure, shortened: as §1
# [24] = target: Gal(b1-4)GlcNAc(b1-2)Man(a1-3)Man(b1-4)GlcNAc(b1-4)GlcNAc
# Procedure, shortened: as §1
# [25] = target: Gal(b1-4)GlcNAc(b1-2)Man(a1-3)[Gal(b1-4)GlcNAc(b1-2)Man(a1-6)]Man(b1-4)GlcNAc(b1-4)GlcNAc
# Procedure, shortened: as §1
# [26] = target: Gal(b1-4)GlcNAc(b1-2)Man(a1-3)[Gal(b1-4)GlcNAc(b1-2)Man(a1-6)]Man(b1-4)GlcNAc(b1-4)[Fuc(a1-6)]GlcNAc
# Procedure, shortened: as §1
# [27] = target: Gal(b1-4)GlcNAc(b1-2)Man(a1-3)[Gal(b1-4)GlcNAc(b1-2)Man(a1-6)][Gal(b1-4)GlcNAc(b1-4)]Man(b1-4)GlcNAc(b1-4)[Fuc(a1-6)]GlcNAc
# Procedure, shortened: as §1
# [28] = target: Gal(b1-4)GlcNAc(b1-2)Man(a1-3)[Gal(b1-4)GlcNAc(b1-2)Man(a1-6)][GlcNAc(b1-4)]Man(b1-4)GlcNAc(b1-4)[Fuc(a1-6)]GlcNAc
# Procedure, shortened: as §1
# [29] = target: Gal(b1-4)GlcNAc(b1-2)Man(a1-3)[GlcNAc(b1-2)Man(a1-6)]Man(b1-4)GlcNAc(b1-4)GlcNAc
# Procedure, shortened: as §1
# [30] = target: Gal(b1-4)GlcNAc(b1-2)Man(a1-3)[GlcNAc(b1-4)][Gal(b1-4)GlcNAc(b1-2)Man(a1-6)]Man(b1-4)GlcNAc(b1-4)GlcNAc
# Procedure, shortened: as §1
# [31] = target: Gal(b1-4)GlcNAc(b1-2)Man(a1-3)[Man(a1-6)]Man(b1-4)GlcNAc(b1-4)GlcNAc
# Procedure, shortened: as §1
# [32] = target: Gal(b1-4)GlcNAc(b1-2)Man(a1-6)Man(b1-4)GlcNAc(b1-4)GlcNAc
# Procedure, shortened: as §1
binder,measurement,setting,value
B1,glycan array binding signal (z-score),[1],0.55
same,glycan array binding signal (z-score),[2],0.308
same,glycan array binding signal (z-score),[3],0.462
same,glycan array binding signal (z-score),[4],-0.461
same,glycan array binding signal (z-score),[5],1.62
same,glycan array binding signal (z-score),[6],-0.413
same,glycan array binding signal (z-score),[7],0.187
same,glycan array binding signal (z-score),[8],-0.145
same,glycan array binding signal (z-score),[9],0.173
same,glycan array binding signal (z-score),[10],-1.36
same,glycan array binding signal (z-score),Gal(b1-3)GlcNAc6S,-0.5
same,glycan array binding signal (z-score),[11],0.297
same,glycan array binding signal (z-score),[12],0.975
same,glycan array binding signal (z-score),[13],-0.282
same,glycan array binding signal (z-score),[14],-0.772
same,glycan array binding signal (z-score),[15],0.195
same,glycan array binding signal (z-score),[16],-0.839
same,glycan array binding signal (z-score),[17],-0.157
same,glycan array binding signal (z-score),[18],-0.273
same,glycan array binding signal (z-score),[19],-0.546
same,glycan array binding signal (z-score),[20],0.653
same,glycan array binding signal (z-score),Gal(b1-4)Gal,-0.819
same,glycan array binding signal (z-score),[21],-0.449
same,glycan array binding signal (z-score),[22],-0.217
same,glycan array binding signal (z-score),Gal(b1-4)Glc,-0.247
same,glycan array binding signal (z-score),Gal(b1-4)Glc6S,0.392
same,glycan array binding signal (z-score),Gal(b1-4)GlcNAc,-0.525
same,glycan array binding signal (z-score),[23],-0.112
same,glycan array binding signal (z-score),Gal(b1-4)GlcNAc(b1-2)Man,-0.212
same,glycan array binding signal (z-score),[24],-0.439
same,glycan array binding signal (z-score),[25],-0.788
same,glycan array binding signal (z-score),[26],-0.592
same,glycan array binding signal (z-score),[27],-0.811
same,glycan array binding signal (z-score),[28],-0.394
same,glycan array binding signal (z-score),[29],-0.425
same,glycan array binding signal (z-score),[30],-0.779
same,glycan array binding signal (z-score),[31],0.199
same,glycan array binding signal (z-score),[32],-0.45

# Part of the list above, with bars between the fields:
binder | measurement | setting | value
B1 | glycan array binding signal (z-score) | Gal(b1-4)GlcNAc(b1-2)Man | -0.212
same | glycan array binding signal (z-score) | [24] | -0.439
same | glycan array binding signal (z-score) | [25] | -0.788
same | glycan array binding signal (z-score) | [26] | -0.592
same | glycan array binding signal (z-score) | [27] | -0.811
same | glycan array binding signal (z-score) | [28] | -0.394
same | glycan array binding signal (z-score) | [29] | -0.425
same | glycan array binding signal (z-score) | [30] | -0.779
same | glycan array binding signal (z-score) | [31] | 0.199
same | glycan array binding signal (z-score) | [32] | -0.45
